Results as given in PMC7819943, “Rice protein-binding microarrays: a tool to detect cis-acting elements near promoter regions in rice”.
The list shows a part of the results.

Sequences of proteins named here, by UniProt entry; tags and fusion partners are left off.
UniProt Q0JBA9, entry or part of it: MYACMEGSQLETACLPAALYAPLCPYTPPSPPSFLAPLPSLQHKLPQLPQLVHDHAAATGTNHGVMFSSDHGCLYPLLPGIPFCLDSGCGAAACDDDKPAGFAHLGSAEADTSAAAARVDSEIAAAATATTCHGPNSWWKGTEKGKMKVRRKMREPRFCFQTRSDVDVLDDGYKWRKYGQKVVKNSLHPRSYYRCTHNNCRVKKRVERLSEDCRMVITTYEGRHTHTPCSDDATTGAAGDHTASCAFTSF

Molecular target: OsWRKY34 (Oryza sativa, UniProt Q0JBA9 1-250)
Assay: protein-binding microarray (RPBM); PBS, 2% BSA, 51.3 ng/ul salmon testes DNA, 50 uM zinc acetate, 200 nM TF, 25 C, 1 h; high values mean tight binding
Settings: protein: recombinant; tags: N-terminal polyhistidine and DsRed monomer fusion (pET32a); label: CyDye5-dUTP incorporated in the synthesized complementary strand; 3' TTTTT single-stranded linker to array surface; dsDNA, one strand shown
In short: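 An Axon 4000B scanner gave the binding signal as per-feature fluorescence intensity in arbitrary units. This followed washing of a custom Agilent array that had been incubated for 1 h at 25 °C with 200 nM protein in PBS, 2% BSA, salmon testes DNA and 50 µM zinc acetate. The proteins were transcription factors fused at the N-terminus to polyhistidine and DsRed, expressed in E. coli BL21-CodonPlus and purified on Ni–NTA.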

| Sequence | binding signal |
| --- | --- |
| GACTCTGCTCCAGTTGACCAGTACTCGATACTCGTGTGTTCGGAGTCACCTAGTGCAG | 10200 fluorescence intensity (a.u.) |
| GGGTGTATTTATATTTCTTTTTCTAATTTTCGGGATGTTTCGGAGTCACCTAGTGCAG | 9970 fluorescence intensity (a.u.) |
| TAACCGCTCATATGCTCTATACTATATGTCTATATCCAACCGGAGTCACCTAGTGCAG | 8620 fluorescence intensity (a.u.) |
| TGATTTGTCTCTCGGCTGGGGCCGCGGCTTCTCCTCCCCACGGAGTCACCTAGTGCAG | 8860 fluorescence intensity (a.u.) |
| CCGTAGCCGTAACACGATCTCCAACTTTCCTCGTGGGCTCCGGAGTCACCTAGTGCAG | 8030 fluorescence intensity (a.u.) |
| TATAGTAATTTGAGTTTTATTTGTTATTTTTGTTACAATCCGGAGTCACCTAGTGCAG | 9250 fluorescence intensity (a.u.) |
| TTGGATCATTTTTTTCGACAGATGCGTACTTCCTTCCTCTCGGAGTCACCTAGTGCAG | 8790 fluorescence intensity (a.u.) |
| GTTAGATCCAATTTTACACCCCATCACATCGAACGTTTGACGGAGTCACCTAGTGCAG | 8120 fluorescence intensity (a.u.) |
| CAGAGGTATAGATTCCCCACCCCGCCGCCTCCACGCATTCCGGAGTCACCTAGTGCAG | 9470 fluorescence intensity (a.u.) |
| ATAAATATGTAGCTATAGCTTCTCTGCTTTCCGTCGCTTACGGAGTCACCTAGTGCAG | 8850 fluorescence intensity (a.u.) |
| CGCGATACATCGATCTCCTCTGCTTCCGATTCCGACATGACGGAGTCACCTAGTGCAG | 8840 fluorescence intensity (a.u.) |
| GAACACTCTTTAGGCTGTTCGGCAATTTGGGTAGGGAACTCGGAGTCACCTAGTGCAG | 8192 fluorescence intensity (a.u.) |
| CATCTTATTATTGGGGATTGGTGGTTTTAGCCAATGGCCGCGGAGTCACCTAGTGCAG | 10500 fluorescence intensity (a.u.) |
| ACCTTTTGCAAAACCAGGTCAAGTCCACTCCTCGCATTCTCGGAGTCACCTAGTGCAG | 9040 fluorescence intensity (a.u.) |
| TCTGCTGTTGTTTTAGTACTCCAAAAATCTATCCTGCCCACGGAGTCACCTAGTGCAG | 8640 fluorescence intensity (a.u.) |
| ATTTCATTTTCCATTTATTCCATGTGTATTTCTGTTTTCACGGAGTCACCTAGTGCAG | 13000 fluorescence intensity (a.u.) |
| TAACTCGTTTTGTAGTATGTCCTGGGATTTCAAGTTTCTTCGGAGTCACCTAGTGCAG | 9190 fluorescence intensity (a.u.) |
| CTTCTGCTCTTCTTCTGGATCTTGTTGATGTGGGTGTTTCCGGAGTCACCTAGTGCAG | 11200 fluorescence intensity (a.u.) |
| CACATCCATATTTGCAATTAATTTACAACCTAATTTACATCGGAGTCACCTAGTGCAG | 9070 fluorescence intensity (a.u.) |
| TATGATTGTTTTAACTTTTAACTGTTCTGCGTGTTTATTACGGAGTCACCTAGTGCAG | 10700 fluorescence intensity (a.u.) |
| TATTCCTTTCTCCTTCCTGTCCCTTGTCGCCGGATTGCAACGGAGTCACCTAGTGCAG | 10400 fluorescence intensity (a.u.) |

Nothing new here: entries from further up.

| Sequence | binding signal |
| --- | --- |
| GGGTGTATTTATATTTCTTTTTCTAATTTTCGGGATGTTTCGGAGTCACCTAGTGCAG | 9970 fluorescence intensity (a.u.) |
| TAACCGCTCATATGCTCTATACTATATGTCTATATCCAACCGGAGTCACCTAGTGCAG | 8620 fluorescence intensity (a.u.) |
| TGATTTGTCTCTCGGCTGGGGCCGCGGCTTCTCCTCCCCACGGAGTCACCTAGTGCAG | 8860 fluorescence intensity (a.u.) |
| CCGTAGCCGTAACACGATCTCCAACTTTCCTCGTGGGCTCCGGAGTCACCTAGTGCAG | 8030 fluorescence intensity (a.u.) |
| TATAGTAATTTGAGTTTTATTTGTTATTTTTGTTACAATCCGGAGTCACCTAGTGCAG | 9250 fluorescence intensity (a.u.) |
| TTGGATCATTTTTTTCGACAGATGCGTACTTCCTTCCTCTCGGAGTCACCTAGTGCAG | 8790 fluorescence intensity (a.u.) |
| GTTAGATCCAATTTTACACCCCATCACATCGAACGTTTGACGGAGTCACCTAGTGCAG | 8120 fluorescence intensity (a.u.) |
| CAGAGGTATAGATTCCCCACCCCGCCGCCTCCACGCATTCCGGAGTCACCTAGTGCAG | 9470 fluorescence intensity (a.u.) |
| ATAAATATGTAGCTATAGCTTCTCTGCTTTCCGTCGCTTACGGAGTCACCTAGTGCAG | 8850 fluorescence intensity (a.u.) |
| CGCGATACATCGATCTCCTCTGCTTCCGATTCCGACATGACGGAGTCACCTAGTGCAG | 8840 fluorescence intensity (a.u.) |
| GAACACTCTTTAGGCTGTTCGGCAATTTGGGTAGGGAACTCGGAGTCACCTAGTGCAG | 8192 fluorescence intensity (a.u.) |

More entries

| Sequence | binding signal |
| --- | --- |
| TTATACGACTTTATACATGTACACATGCTTATATGCTCTCCGGAGTCACCTAGTGCAG | 9180 fluorescence intensity (a.u.) |
| CACGCGCCATGCCCGCTCCAGCTCCACATATTTACGTTGCCGGAGTCACCTAGTGCAG | 11800 fluorescence intensity (a.u.) |
| ATATAGCTTGCTTGTTCGGTTGTTCCACTGTTCCGTGAGGCGGAGTCACCTAGTGCAG | 8310 fluorescence intensity (a.u.) |
| CAAGTAGCCAATCCGAACGCATCCCCGTCTTTCTTTCTTTCGGAGTCACCTAGTGCAG | 12400 fluorescence intensity (a.u.) |
| ACATGCGTACAACGAGCCGTATTTTTTTTCCCTTGCATCACGGAGTCACCTAGTGCAG | 8210 fluorescence intensity (a.u.) |
| GCCTATACCCTCTGCTGTCCGCACCCGTTTTTCTACTGGACGGAGTCACCTAGTGCAG | 8040 fluorescence intensity (a.u.) |
| TTTCTGAAGACCAAACTGCTTCTAATTCTTCTTCTTCTTCCGGAGTCACCTAGTGCAG | 8930 fluorescence intensity (a.u.) |
| GTTTGACATGCAGACTTGATTCTATCACCTATAGCATCTGCGGAGTCACCTAGTGCAG | 28100 fluorescence intensity (a.u.) |
| AGATGACGCCATTGACTTTTTCTCACATGTTTGACCATTCCGGAGTCACCTAGTGCAG | 15800 fluorescence intensity (a.u.) |
| CAGCGCTGCCGCAGATAGGACGCCCTAACTTTGATCATCTCGGAGTCACCTAGTGCAG | 8920 fluorescence intensity (a.u.) |
| CTAGCGGCTTCCTCTCCATGCGCCAGGGCCTCGACACCGCCGGAGTCACCTAGTGCAG | 9510 fluorescence intensity (a.u.) |
| TTTTTTGGTTTTCTTATAGAATCGGATCTATGTTTTTTTTCGGAGTCACCTAGTGCAG | 9770 fluorescence intensity (a.u.) |
| ACCTGGTACGCATGAATCCTGCGACCATATTGTTTACCTCCGGAGTCACCTAGTGCAG | 9990 fluorescence intensity (a.u.) |
| ATCTATCATTTATGTTTTTAACATATGACTTGTTCAGTCCCGGAGTCACCTAGTGCAG | 8370 fluorescence intensity (a.u.) |
| ATAGTTTTTTTTTTCTGTTCTGTTTTTGGCGATTGTTTTCCGGAGTCACCTAGTGCAG | 8120 fluorescence intensity (a.u.) |
| CTCTCAACTTGTTGCCCATTTCTTCTTCGTCGTTGCCCGTCGGAGTCACCTAGTGCAG | 8340 fluorescence intensity (a.u.) |
| CCTCTAGACCCTTAGGAAAACCCTTCTTTTCGTGCTTCCCCGGAGTCACCTAGTGCAG | 8160 fluorescence intensity (a.u.) |
| TCCCTAGCAATATACTCTGCTTTGCTTTTCCTTGACTTTCCGGAGTCACCTAGTGCAG | 9600 fluorescence intensity (a.u.) |
| GCCGACTCTTACTCCTCCGCCCACTCACCACGCGCGCTGCCGGAGTCACCTAGTGCAG | 11000 fluorescence intensity (a.u.) |
| GCACTTCCATCGATCTCTCTCCTCGCCACGGGCCACGGCCCGGAGTCACCTAGTGCAG | 10500 fluorescence intensity (a.u.) |
| CCTCTCATTTTAAATGTATTTGTGGTTTGTATATCCAACACGGAGTCACCTAGTGCAG | 10700 fluorescence intensity (a.u.) |
